At least one compound was matched to its structure with a doubt left.
Experiments:
[1] = system: C6 glioma cells; assay: C6 glioma cell viability and proliferation in vitro; format: cell-based, rat; settings: 1 mM oxaloacetate, medium changed every day, FIG. 1
[2] = system: C6 glioma; assay: C6 glioma implanted in rat striatum, tumor growth followed by MRI; format: in vivo; settings: 0.2 M oxaloacetate vs 0.4 M NaCl in drinking water, two groups of 19 rats, FIG. 3, p=0.02
Description: Male SPD&OLD rats weighing 260-280 g were used and placed in individual cages. All experiments were conducted according to the guidelines of the institutional animal care and use committee of the Weizmann Institute of Science, Rehovot, Israel.
Rat C6 glioma cells were grown in DMEM medium supplemented with 10% FCS. 10^7 cells were plated on 100×20 mm dishes and grown to 80% confluence for two days, passaged at a dilution of 1:10 after 1-2 min exposure to 0.25% trypsin and plated on 7 plates 60×15 mm. The cells were grown to 80% confluence for two additional days. The cells were then trypsynized as above, washed once with sterile PBS and centrifuged for 15 min at 1200 rpm. Prior to centrifugation, the cells were counted in a hemocytometer. Following centrifugation, the medium was removed and the cells were diluted in sterile PBS to a final concentration […] was injected immediately intracranially. For that purpose, the rats were anesthetized with 1.5% Halothane and placed in a stereotactic apparatus. […]
Experiments on live animals were conducted on a Bio spec Avance™ system (Bruker Biospin, Ettlingen, Germany) with a 4.7 T 30-cm horizontal bore magnet. […] The volume of the tumor was assessed using the Surdriver program.
After establishing that oxaloacetate has no effect on glioma growth when grown under in vitro conditions, the effect of same in vivo was determined. […]

O=C(O)CC(=O)C(=O)O [oxaloacetate]
proliferative status of the glioma cells [1]: not affected | viability of the glioma cells [1]: not affected | tumor invasiveness (tumor size at second MRI session divided by that 10 days earlier) [2]: retards tumor invasivenss in a significant manner

— patent US10159717B2, “Methods of treating cancer of the central nervous system” (Yeda Research and Development Co. Ltd., priority 2008, dated 2018)
